{"source": "PubChem BioAssay AID1224830, NIAID | 2016", "purpose": "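Genes whose knock-down alters the TNF-alpha reporter response to LPS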 (primary screen)", "cell system": "human THP-1 monocytic leukaemia cells, TNF dual-luciferase reporter clone, PMA-differentiated to macrophage-like cells", "reagent": "siRNA pool against human genes, 50 nM", "duration": "LPS for 4 h, given about 3 days after siRNA transfection", "challenge": "bacterial LPS (TLR4 ligand), 10 ng/ml", "detection": "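TNF firefly reporter luminescence divided by renilla, normalised to the plate median, then turned into a robust z-score for each replicate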", "direction": "TNF reporter robust z-score: higher = stronger TNF reporter response to LPS", "hit rule": "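Each well counts as active if its z-score is over 2.8 or under -1.5; controls are left without a call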", "note": "Shown is one part, drawn at random, of about 18,000 deposited reagents. Over the whole deposit, about 2,900 (16%) are marked active. 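Calls are made per well; low scores hint the gene aids the LPS response, high scores that it dampens it.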 Repeated entries: four replicate wells of each siRNA pool. No sequences are given here."}
The opening 3 entries, to show the layout:
{"Target gene": "DEAF1 (GeneID 10522)", "PubChem SID": "SID315454158", "TNF reporter robust z-score": 0.81, "Call": "inactive"}
{"Target gene": "DEAF1 (GeneID 10522)", "PubChem SID": "SID315454158", "TNF reporter robust z-score": 0.47, "Call": "inactive"}
{"Target gene": "DEAF1 (GeneID 10522)", "PubChem SID": "SID315454158", "TNF reporter robust z-score": 1.2, "Call": "inactive"}

Results, repeating the preview:
{"Target gene": "DEAF1 (GeneID 10522)", "PubChem SID": "SID315454158", "TNF reporter robust z-score": 0.81, "Call": "inactive"}
{"Target gene": "DEAF1 (GeneID 10522)", "PubChem SID": "SID315454158", "TNF reporter robust z-score": 0.47, "Call": "inactive"}
{"Target gene": "DEAF1 (GeneID 10522)", "PubChem SID": "SID315454158", "TNF reporter robust z-score": 1.2, "Call": "inactive"}
{"Target gene": "DEAF1 (GeneID 10522)", "PubChem SID": "SID315454158", "TNF reporter robust z-score": 2.95, "Call": "active"}
{"Target gene": "ST13 (GeneID 6767)", "PubChem SID": "SID315451665", "TNF reporter robust z-score": 0.76, "Call": "inactive"}
{"Target gene": "ST13 (GeneID 6767)", "PubChem SID": "SID315451665", "TNF reporter robust z-score": -0.97, "Call": "inactive"}
{"Target gene": "ST13 (GeneID 6767)", "PubChem SID": "SID315451665", "TNF reporter robust z-score": -0.6, "Call": "inactive"}
{"Target gene": "ST13 (GeneID 6767)", "PubChem SID": "SID315451665", "TNF reporter robust z-score": -0.86, "Call": "inactive"}
{"Target gene": "RAB11FIP4 (GeneID 84440)", "PubChem SID": "SID315460360", "TNF reporter robust z-score": -0.95, "Call": "inactive"}
{"Target gene": "RAB11FIP4 (GeneID 84440)", "PubChem SID": "SID315460360", "TNF reporter robust z-score": -0.52, "Call": "inactive"}
{"Target gene": "RAB11FIP4 (GeneID 84440)", "PubChem SID": "SID315460360", "TNF reporter robust z-score": -0.72, "Call": "inactive"}
{"Target gene": "RAB11FIP4 (GeneID 84440)", "PubChem SID": "SID315460360", "TNF reporter robust z-score": 0.19, "Call": "inactive"}
{"Target gene": "RBM23 (GeneID 55147)", "PubChem SID": "SID315457443", "TNF reporter robust z-score": -0.62, "Call": "inactive"}
{"Target gene": "RBM23 (GeneID 55147)", "PubChem SID": "SID315457443", "TNF reporter robust z-score": -1.14, "Call": "inactive"}
{"Target gene": "RBM23 (GeneID 55147)", "PubChem SID": "SID315457443", "TNF reporter robust z-score": -0.4, "Call": "inactive"}
{"Target gene": "RBM23 (GeneID 55147)", "PubChem SID": "SID315457443", "TNF reporter robust z-score": 1.8, "Call": "inactive"}
{"Target gene": "LRFN5 (GeneID 145581)", "PubChem SID": "SID315462252", "TNF reporter robust z-score": 0.23, "Call": "inactive"}
{"Target gene": "LRFN5 (GeneID 145581)", "PubChem SID": "SID315462252", "TNF reporter robust z-score": -0.27, "Call": "inactive"}
{"Target gene": "LRFN5 (GeneID 145581)", "PubChem SID": "SID315462252", "TNF reporter robust z-score": -0.33, "Call": "inactive"}
{"Target gene": "LRFN5 (GeneID 145581)", "PubChem SID": "SID315462252", "TNF reporter robust z-score": -0.03, "Call": "inactive"}
{"Target gene": "GAGE7 (GeneID 2579)", "PubChem SID": "SID315448819", "TNF reporter robust z-score": 2.24, "Call": "inactive"}
{"Target gene": "GAGE7 (GeneID 2579)", "PubChem SID": "SID315448819", "TNF reporter robust z-score": 1.24, "Call": "inactive"}
{"Target gene": "GAGE7 (GeneID 2579)", "PubChem SID": "SID315448819", "TNF reporter robust z-score": 1.72, "Call": "inactive"}
{"Target gene": "GAGE7 (GeneID 2579)", "PubChem SID": "SID315448819", "TNF reporter robust z-score": 2.31, "Call": "inactive"}
{"Target gene": "VSTM1 (GeneID 284415)", "PubChem SID": "SID315463780", "TNF reporter robust z-score": -1.19, "Call": "inactive"}
{"Target gene": "VSTM1 (GeneID 284415)", "PubChem SID": "SID315463780", "TNF reporter robust z-score": -0.9, "Call": "inactive"}
{"Target gene": "VSTM1 (GeneID 284415)", "PubChem SID": "SID315463780", "TNF reporter robust z-score": -1.5, "Call": "inactive"}
{"Target gene": "CASP3 (GeneID 836)", "PubChem SID": "SID315447703", "TNF reporter robust z-score": 1.21, "Call": "inactive"}
{"Target gene": "CASP3 (GeneID 836)", "PubChem SID": "SID315447703", "TNF reporter robust z-score": -0.46, "Call": "inactive"}
{"Target gene": "CASP3 (GeneID 836)", "PubChem SID": "SID315447703", "TNF reporter robust z-score": -0.25, "Call": "inactive"}
{"Target gene": "CASP3 (GeneID 836)", "PubChem SID": "SID315447703", "TNF reporter robust z-score": 0.45, "Call": "inactive"}
{"Target gene": "ARX (GeneID 170302)", "PubChem SID": "SID315462893", "TNF reporter robust z-score": -1.41, "Call": "inactive"}
{"Target gene": "ARX (GeneID 170302)", "PubChem SID": "SID315462893", "TNF reporter robust z-score": -0.69, "Call": "inactive"}
{"Target gene": "ARX (GeneID 170302)", "PubChem SID": "SID315462893", "TNF reporter robust z-score": -1.05, "Call": "inactive"}
{"Target gene": "ARX (GeneID 170302)", "PubChem SID": "SID315462893", "TNF reporter robust z-score": -0.32, "Call": "inactive"}
{"Target gene": "ACAA2 (GeneID 10449)", "PubChem SID": "SID315454096", "TNF reporter robust z-score": -1.11, "Call": "inactive"}
{"Target gene": "ACAA2 (GeneID 10449)", "PubChem SID": "SID315454096", "TNF reporter robust z-score": -0.62, "Call": "inactive"}
{"Target gene": "ACAA2 (GeneID 10449)", "PubChem SID": "SID315454096", "TNF reporter robust z-score": 1.4, "Call": "inactive"}
{"Target gene": "ACAA2 (GeneID 10449)", "PubChem SID": "SID315454096", "TNF reporter robust z-score": 1.17, "Call": "inactive"}
{"Target gene": "ADAMTS16 (GeneID 170690)", "PubChem SID": "SID315462913", "TNF reporter robust z-score": -1.1, "Call": "inactive"}
{"Target gene": "ADAMTS16 (GeneID 170690)", "PubChem SID": "SID315462913", "TNF reporter robust z-score": -0.07, "Call": "inactive"}
{"Target gene": "ADAMTS16 (GeneID 170690)", "PubChem SID": "SID315462913", "TNF reporter robust z-score": -0.86, "Call": "inactive"}
{"Target gene": "ADAMTS16 (GeneID 170690)", "PubChem SID": "SID315462913", "TNF reporter robust z-score": -1.07, "Call": "inactive"}
{"Target gene": "TUBG1 (GeneID 7283)", "PubChem SID": "SID315452010", "TNF reporter robust z-score": -0.2, "Call": "inactive"}
{"Target gene": "TUBG1 (GeneID 7283)", "PubChem SID": "SID315452010", "TNF reporter robust z-score": 0.26, "Call": "inactive"}
{"Target gene": "TUBG1 (GeneID 7283)", "PubChem SID": "SID315452010", "TNF reporter robust z-score": 0.47, "Call": "inactive"}
{"Target gene": "TUBG1 (GeneID 7283)", "PubChem SID": "SID315452010", "TNF reporter robust z-score": -0.5, "Call": "inactive"}
